Data taken from PMC3804554.
These are yes or no findings as the source states them, for the method shown. In cells and extracts the contact can be indirect. Binding calls can cover weak binding; strength is not graded here. Sequences can lack the tags named with a protein.

Sequences of proteins named here, by UniProt entry; tags and fusion partners are left off. A change or cut given only in a name is not applied to a line headed by its entry.
UniProt E2QCI6: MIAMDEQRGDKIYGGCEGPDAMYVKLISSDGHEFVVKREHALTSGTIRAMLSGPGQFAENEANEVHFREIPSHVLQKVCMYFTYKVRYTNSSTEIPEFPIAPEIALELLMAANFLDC

Molecular target: EloC-Myc (Elongin C, Myc-tagged) (Drosophila melanogaster) (UniProt E2QCI6)
Test: co-IP; Myc- and FLAG-tagged proteins co-expressed in S2 cells; native whole cell extracts (no cross-linking); IP with anti-FLAG or anti-Myc, protein G-agarose, Western blot

B1: Corto-FLAG (ETP Corto, FLAG-tagged) (protein, UniProt P41046 1-550)
chain: MTMAACYANYDMSSLSHGMSALSALQQQQQQQQQQHSQTQQQHHHQQQQQHMYHAAVAAHQQQLLQQQQQQQHHRHHHQPANTSSSSNSRHSHAAATQTQVAAAVANSRQQQQQQQQQQQQQQQQQTASSNSNAAPAPSPQKDYSIPLHVDCSVEYELPNQPKPPAGQRVEPLLMIHPCYFRKMESQRRSPFVNNMHATARAVSSSSLSSGAALGGGGSGAAVATAPSSSAARRGARAATSAQQQQQQQQRYQQQQQQLRQQHQQMSQMSQQAHYPQQQSSLVRQHQQQQQQQQQQQRASSNQSQRQSQSQSQSQSHAANSAAAAAAQASIAAAAAGQWDQLAALAARTALTPHHMLHPHSHYAAKGSGGGAGGGKRDAMISGSYGQTAVASGKLQQSQVQQQQPQQQQQHCLPPPPWDATSMLMDRSPMATVPSNYQAGPDTNPMRLYSATPTAGAASGGSASVGGGGAVSGAGATGAVNTATDKLSGKYRQYLRSQRMHPYAAAASLNLAAAAAAAGQTSFVPFSSAATAVAATPTFQHLPQISCYNV
binding: binds
